# According to the supplement of paper PMC12819154, “High-throughput peptide-centric local stability assay extends protein–ligand identification to membrane proteins, tissues and bacteria” (Nature Structural & Molecular Biology, 2025):
# Chains of the proteins cited; added tags and fusions are not shown. Lines headed by an entry give the natural chain unless they say otherwise; changes in a name come on top.
# UniProt Q64339: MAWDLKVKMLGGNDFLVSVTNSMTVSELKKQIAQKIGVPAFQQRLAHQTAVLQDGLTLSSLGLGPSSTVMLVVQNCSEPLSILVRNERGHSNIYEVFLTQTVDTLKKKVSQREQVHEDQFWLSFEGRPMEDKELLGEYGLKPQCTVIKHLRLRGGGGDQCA
# UniProt Q61419: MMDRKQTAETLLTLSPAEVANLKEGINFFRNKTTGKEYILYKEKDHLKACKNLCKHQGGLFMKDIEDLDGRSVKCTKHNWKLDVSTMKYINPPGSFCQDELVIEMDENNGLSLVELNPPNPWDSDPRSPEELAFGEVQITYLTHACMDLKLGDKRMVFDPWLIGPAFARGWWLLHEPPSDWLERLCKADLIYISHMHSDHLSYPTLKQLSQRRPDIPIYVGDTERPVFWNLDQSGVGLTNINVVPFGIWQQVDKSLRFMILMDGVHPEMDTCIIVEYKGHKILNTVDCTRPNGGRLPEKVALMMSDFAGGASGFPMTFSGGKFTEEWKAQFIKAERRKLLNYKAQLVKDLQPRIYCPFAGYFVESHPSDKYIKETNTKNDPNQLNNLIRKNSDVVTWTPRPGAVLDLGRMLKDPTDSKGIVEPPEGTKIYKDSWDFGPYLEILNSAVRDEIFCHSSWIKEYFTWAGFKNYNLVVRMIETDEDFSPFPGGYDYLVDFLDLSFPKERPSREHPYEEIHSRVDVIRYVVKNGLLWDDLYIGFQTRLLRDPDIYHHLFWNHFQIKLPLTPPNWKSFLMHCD
# UniProt Q67FY2: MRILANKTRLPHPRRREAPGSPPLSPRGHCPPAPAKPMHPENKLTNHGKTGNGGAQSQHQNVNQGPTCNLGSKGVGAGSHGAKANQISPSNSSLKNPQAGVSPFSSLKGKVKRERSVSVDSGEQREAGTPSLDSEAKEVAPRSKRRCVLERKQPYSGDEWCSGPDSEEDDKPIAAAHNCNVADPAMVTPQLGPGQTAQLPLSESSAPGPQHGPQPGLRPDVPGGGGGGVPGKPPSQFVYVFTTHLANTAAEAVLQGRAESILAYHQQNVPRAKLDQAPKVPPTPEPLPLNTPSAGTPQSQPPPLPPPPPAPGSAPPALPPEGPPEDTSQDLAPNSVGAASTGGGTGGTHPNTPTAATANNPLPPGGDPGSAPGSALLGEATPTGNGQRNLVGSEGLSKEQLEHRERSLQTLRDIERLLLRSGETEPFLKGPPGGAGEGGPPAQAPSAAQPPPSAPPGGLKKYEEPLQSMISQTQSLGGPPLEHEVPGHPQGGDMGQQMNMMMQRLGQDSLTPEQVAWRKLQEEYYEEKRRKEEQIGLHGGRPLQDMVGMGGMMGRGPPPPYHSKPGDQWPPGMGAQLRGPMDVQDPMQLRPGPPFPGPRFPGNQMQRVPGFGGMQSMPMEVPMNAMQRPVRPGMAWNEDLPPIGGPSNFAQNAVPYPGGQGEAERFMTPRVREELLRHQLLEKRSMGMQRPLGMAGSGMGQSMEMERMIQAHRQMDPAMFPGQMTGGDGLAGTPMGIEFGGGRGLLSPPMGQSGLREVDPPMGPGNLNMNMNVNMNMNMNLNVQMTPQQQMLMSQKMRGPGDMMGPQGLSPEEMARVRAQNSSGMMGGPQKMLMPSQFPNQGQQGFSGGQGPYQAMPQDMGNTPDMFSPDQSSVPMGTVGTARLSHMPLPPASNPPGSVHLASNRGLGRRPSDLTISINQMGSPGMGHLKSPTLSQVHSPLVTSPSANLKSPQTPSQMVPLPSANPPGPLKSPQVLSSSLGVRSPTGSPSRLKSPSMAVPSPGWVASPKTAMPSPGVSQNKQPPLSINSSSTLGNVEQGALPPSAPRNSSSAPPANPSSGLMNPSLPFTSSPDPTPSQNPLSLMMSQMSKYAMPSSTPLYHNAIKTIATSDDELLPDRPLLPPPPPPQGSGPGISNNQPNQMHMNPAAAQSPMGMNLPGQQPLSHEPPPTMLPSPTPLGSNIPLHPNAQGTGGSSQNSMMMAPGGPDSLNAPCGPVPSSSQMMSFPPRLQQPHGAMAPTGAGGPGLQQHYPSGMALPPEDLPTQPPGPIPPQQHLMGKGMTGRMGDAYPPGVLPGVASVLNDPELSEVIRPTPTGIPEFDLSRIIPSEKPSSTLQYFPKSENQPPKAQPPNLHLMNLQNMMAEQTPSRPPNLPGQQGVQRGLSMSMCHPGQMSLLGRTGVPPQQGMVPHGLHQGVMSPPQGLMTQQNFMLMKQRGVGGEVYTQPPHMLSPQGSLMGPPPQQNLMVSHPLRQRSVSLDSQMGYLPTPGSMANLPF
# UniProt Q61655: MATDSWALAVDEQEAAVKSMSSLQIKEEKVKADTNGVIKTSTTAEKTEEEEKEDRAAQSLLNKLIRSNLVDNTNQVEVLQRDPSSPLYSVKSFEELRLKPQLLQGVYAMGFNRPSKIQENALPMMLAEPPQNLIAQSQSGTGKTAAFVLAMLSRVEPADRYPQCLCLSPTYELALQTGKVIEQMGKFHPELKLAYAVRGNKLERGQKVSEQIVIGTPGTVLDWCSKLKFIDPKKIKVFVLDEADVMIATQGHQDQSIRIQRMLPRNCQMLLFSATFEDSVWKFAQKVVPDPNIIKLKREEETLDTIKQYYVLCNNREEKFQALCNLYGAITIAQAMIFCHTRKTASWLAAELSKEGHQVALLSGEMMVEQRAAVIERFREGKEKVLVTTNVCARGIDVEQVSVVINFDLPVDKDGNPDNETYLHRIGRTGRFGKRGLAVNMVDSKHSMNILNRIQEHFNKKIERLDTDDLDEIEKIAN
# UniProt Q62188, whole entry: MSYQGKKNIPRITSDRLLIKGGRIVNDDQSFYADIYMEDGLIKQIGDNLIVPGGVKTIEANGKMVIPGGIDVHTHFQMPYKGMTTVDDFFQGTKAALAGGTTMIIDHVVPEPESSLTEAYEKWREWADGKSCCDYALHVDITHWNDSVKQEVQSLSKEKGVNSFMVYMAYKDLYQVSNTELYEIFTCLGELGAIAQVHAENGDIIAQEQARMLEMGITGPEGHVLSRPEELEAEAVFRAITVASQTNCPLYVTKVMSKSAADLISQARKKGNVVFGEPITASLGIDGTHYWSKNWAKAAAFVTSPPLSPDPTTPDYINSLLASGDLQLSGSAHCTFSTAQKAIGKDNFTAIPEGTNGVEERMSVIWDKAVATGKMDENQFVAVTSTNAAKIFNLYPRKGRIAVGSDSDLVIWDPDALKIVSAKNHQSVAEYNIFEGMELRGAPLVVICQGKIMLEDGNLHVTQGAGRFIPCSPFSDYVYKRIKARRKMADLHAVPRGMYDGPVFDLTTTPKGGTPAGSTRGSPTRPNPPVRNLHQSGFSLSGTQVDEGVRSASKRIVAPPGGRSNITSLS
# UniProt Q62130: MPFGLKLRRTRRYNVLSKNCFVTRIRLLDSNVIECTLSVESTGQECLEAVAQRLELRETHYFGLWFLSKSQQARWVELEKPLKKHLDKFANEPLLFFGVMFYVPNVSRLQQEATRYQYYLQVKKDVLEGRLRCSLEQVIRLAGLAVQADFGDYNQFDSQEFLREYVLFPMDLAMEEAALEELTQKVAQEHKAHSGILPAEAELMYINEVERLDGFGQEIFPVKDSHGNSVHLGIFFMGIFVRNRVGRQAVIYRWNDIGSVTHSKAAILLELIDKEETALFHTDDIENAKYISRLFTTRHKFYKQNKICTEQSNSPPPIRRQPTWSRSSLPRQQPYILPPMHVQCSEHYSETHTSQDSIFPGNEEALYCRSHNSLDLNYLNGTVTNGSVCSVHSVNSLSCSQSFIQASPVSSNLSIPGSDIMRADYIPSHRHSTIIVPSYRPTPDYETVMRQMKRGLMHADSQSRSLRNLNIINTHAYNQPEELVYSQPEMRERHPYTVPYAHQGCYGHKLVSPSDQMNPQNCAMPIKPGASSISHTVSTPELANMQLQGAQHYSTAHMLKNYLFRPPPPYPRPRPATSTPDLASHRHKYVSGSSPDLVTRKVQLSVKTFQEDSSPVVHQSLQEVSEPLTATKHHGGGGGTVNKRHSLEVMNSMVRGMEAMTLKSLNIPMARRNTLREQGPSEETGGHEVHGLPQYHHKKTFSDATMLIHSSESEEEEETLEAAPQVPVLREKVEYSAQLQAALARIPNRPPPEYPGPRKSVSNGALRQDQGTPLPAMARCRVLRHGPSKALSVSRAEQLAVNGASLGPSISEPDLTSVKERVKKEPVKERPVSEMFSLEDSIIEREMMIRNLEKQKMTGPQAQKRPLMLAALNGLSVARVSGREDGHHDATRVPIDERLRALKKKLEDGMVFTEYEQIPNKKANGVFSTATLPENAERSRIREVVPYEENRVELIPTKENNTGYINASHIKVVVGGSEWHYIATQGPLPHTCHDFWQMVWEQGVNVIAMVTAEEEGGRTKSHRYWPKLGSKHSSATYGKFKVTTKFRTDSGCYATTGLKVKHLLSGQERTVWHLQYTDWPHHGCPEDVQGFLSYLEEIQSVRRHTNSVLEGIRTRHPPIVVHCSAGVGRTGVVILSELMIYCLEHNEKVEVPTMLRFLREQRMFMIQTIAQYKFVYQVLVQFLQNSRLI
# UniProt Q62433: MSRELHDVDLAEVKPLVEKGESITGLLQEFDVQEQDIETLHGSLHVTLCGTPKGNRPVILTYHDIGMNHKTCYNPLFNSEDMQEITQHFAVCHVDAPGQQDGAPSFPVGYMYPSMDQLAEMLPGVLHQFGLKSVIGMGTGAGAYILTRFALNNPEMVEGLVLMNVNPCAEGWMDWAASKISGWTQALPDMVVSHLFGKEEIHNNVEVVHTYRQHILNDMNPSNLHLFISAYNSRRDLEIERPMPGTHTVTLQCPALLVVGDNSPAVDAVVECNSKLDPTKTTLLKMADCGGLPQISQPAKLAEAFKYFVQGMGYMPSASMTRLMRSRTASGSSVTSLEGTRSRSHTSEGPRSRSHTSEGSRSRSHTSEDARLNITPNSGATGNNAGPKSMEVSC
# The other results are listed elsewhere or left out. Most entries show no effect beyond the scatter of the controls.
# Compound: CN[C@@H]1C[C@H]2O[C@@](C)([C@@H]1OC)n1c3ccccc3c3c4c(c5c6ccccc6n2c5c31)C(=O)NC4 [staurosporine]
# Test: log2 fold change of tryptic peptide abundance, ligand vs vehicle (limited proteolysis) (log2 ratio); higher = more trypsin-susceptible (destabilized)
# Settings: ligand concentration: 20 uM; sample: mouse liver crude lysate; replicate design: treated separately
row,Target,log2 fold change
1,"UniProt Q64339 (peptide sequence: IGVPAFQQR, peptide start residue: 36)",-0.231
2,"UniProt Q61419 (peptide sequence: EYILYKEKDHLK, peptide start residue: 37)",-0.186
3,"UniProt Q67FY2 (peptide sequence: VRAQNSSGMMGGPQK, peptide start residue: 817)",-1.12
4,"UniProt Q62504 (peptide sequence: VDSAPRPIPSWYMK, peptide start residue: 1498)",-0.425
5,"UniProt Q61655 (peptide sequence: TASWLAAELSK, peptide start residue: 344)",0.27
6,"UniProt Q62188 (peptide sequence: QIGDNLIVPGGVK, peptide start residue: 44)",0.395
7,"UniProt Q62130 (peptide sequence: ADYIPSHR, peptide start residue: 423)",0.167
8,"UniProt Q62433 (peptide sequence: EEIHNNVEVVHTYR, peptide start residue: 199)",-0.177
